Experimental data reported in paper PMC9844029.
No constants are given. Whether binding was seen depends on the method and setting. Binding seen in cells or lysates may run through a third protein.

These substances were tested against T1, ARGONAUTE 1 (Arabidopsis thaliana (endogenous in Col-0 background plants)) (UniProt O04379) (assay: co-IP; endogenous AGO1 immunoprecipitated from tissue lysate of P1/HC-Pro plants with homemade polyclonal α-AGO1 IgG on protein A beads, 4 °C, 2 h; IP buffer 50 mM Tris-HCl pH 7.5, 150 mM NaCl, 5 mM MgCl2, 0.1% Nonidet P-40, 10% glycerol, 5 mM DTT; HC-Pro looked for by western blot).
T1 sequence: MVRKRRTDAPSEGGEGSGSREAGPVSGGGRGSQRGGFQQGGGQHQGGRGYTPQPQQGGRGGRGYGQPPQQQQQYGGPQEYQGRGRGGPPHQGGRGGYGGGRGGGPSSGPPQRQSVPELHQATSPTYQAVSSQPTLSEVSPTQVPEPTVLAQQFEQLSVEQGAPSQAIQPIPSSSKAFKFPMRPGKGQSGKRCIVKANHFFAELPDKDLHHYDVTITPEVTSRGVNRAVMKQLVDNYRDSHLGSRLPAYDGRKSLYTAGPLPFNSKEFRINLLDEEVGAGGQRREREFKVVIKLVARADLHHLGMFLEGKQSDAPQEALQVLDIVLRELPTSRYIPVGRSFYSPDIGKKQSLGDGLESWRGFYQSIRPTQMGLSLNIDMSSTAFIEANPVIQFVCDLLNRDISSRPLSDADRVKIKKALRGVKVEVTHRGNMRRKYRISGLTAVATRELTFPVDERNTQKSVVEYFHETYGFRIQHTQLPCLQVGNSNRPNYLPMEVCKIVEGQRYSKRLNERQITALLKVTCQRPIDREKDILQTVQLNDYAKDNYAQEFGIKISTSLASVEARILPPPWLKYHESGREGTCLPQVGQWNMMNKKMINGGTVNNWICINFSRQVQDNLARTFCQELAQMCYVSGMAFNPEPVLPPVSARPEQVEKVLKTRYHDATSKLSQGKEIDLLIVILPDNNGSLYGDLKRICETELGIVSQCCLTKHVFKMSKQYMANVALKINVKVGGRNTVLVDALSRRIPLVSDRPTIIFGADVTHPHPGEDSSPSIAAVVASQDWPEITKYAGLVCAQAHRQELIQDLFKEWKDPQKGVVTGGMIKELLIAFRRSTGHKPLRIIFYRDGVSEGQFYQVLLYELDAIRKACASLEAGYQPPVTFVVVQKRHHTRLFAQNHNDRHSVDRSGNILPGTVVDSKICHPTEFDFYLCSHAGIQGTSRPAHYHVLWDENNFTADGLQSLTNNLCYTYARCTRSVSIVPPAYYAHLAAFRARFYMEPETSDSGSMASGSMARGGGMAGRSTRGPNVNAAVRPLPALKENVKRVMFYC

| Substance | binding |
| --- | --- |
| TuMV HC-Pro (turnip mosaic virus) | no binding |
| TEV HC-Pro (tobacco etch virus) | no binding |
| ZYMV HC-Pro (zucchini yellow mosaic virus) | no binding |
